Data as given in PubChem BioAssay AID686938 (Drosophila RNAi Screening Center, 2013)
In all, the deposit lists about 23,000 reagents; this is a random part of those with a known target gene and a result. In the full data, 75 (0.33%) were called active. 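Raw plate signals without normalisation; calls rest on plate z-scores that were not deposited; ratio present for only 364 wells.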 Entries without a mark were called inactive. The numbers tell different reagents against one gene apart. Names joined by + are all predicted targets of the reagent. Not given: the dose of the treatment.

Assay: 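Knock-downs reducing store-operated calcium influx in Drosophila cells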 (primary screen)
Cells: Drosophila S2R+ cells
Reagent: long dsRNA against Drosophila genes, about 0.25 µg dsRNA per well, roughly 10,000 cells
Duration: 5 days of knock-down before the calcium assay
Conditions: thapsigargin (SERCA pump blocker) to empty calcium stores; entry signal taken 4 min after adding it
Detection: 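Duplicate raw fluo-4 intensities per well from a plate reader, at rest and four minutes after thapsigargin emptied calcium stores; entry-to-rest ratio filled for only some wells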
Scale: calcium entry signal: higher = stronger calcium signal after store depletion; resting calcium signal: higher = higher resting calcium signal
Call rule: 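Hit if the duplicate-averaged plate z-score for entry over resting signal is under −3; wells with weak total dye signal (Fmax z < −2) or more than 5 off-targets removed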
Calls: active = strongly reduced calcium entry; inactive = no strong reduction

target gene | reagent | calcium entry signal, replicate 1 (fluorescence units) | calcium entry signal, replicate 2 (fluorescence units) | resting calcium signal, replicate 1 (fluorescence units) | resting calcium signal, replicate 2 (fluorescence units)
Acf | 1 | 3.52e7 | 3.82e7 | 1.49e7 | 1.73e7
FoxP | 1 | 3.70e7 | 3.39e7 | 1.80e7 | 1.87e7
FoxP | 2 | 3.59e7 | 4.08e7 | 1.78e7 | 2.24e7
Met | 1 | 3.83e7 | 4.96e7 | 2.00e7 | 2.50e7
CG13857 | 1 | 4.11e7 | 4.76e7 | 5.13e7 | 2.03e7
LeuRS | 1 | 2.38e7 | 2.46e7 | 1.26e7 | 1.17e7
RpS12 | 1 | 1.49e7 | 1.39e7 | 1.20e7 | 7.97e6
Aplip1 | 1 | 3.83e7 | 2.85e7 | 1.60e7 | 1.27e7
Aplip1 | 2 | 2.67e7 | 3.37e7 | 1.42e7 | 1.56e7
Aplip1 | 3 | 2.14e7 | 2.59e7 | 1.14e7 | 1.31e7
rnh1 | 1 | 3.10e7 | 3.40e7 | 1.50e7 | 1.54e7
CG10584 | 1 | 3.39e7 | 4.96e7 | 1.63e7 | 2.18e7
CG31909 | 1 | 3.19e7 | 5.17e7 | 1.54e7 | 2.39e7
CG17196 | 1 | 3.30e7 | 6.47e7 | 1.76e7 | 2.47e7
CG6287 | 1 | 4.79e7 | – | 2.04e7 | –
Ac3 | 1 | 3.83e7 | – | 1.80e7 | –
r + CG13012 | 1 | 3.18e7 | 2.88e7 | 1.76e7 | 1.37e7
Npc2a | 1 | 2.40e7 | 2.74e7 | 1.15e7 | 1.27e7
CG18540 | 1 | 4.98e7 | 6.48e7 | 2.08e7 | 2.82e7
Tbc1d22 | 1 | 4.17e7 | 3.77e7 | 1.88e7 | 1.69e7
Klp98A | 1 | 1.69e7 | 3.94e7 | 9.39e6 | 1.69e7
Klp98A | 2 | 2.70e7 | 3.79e7 | 1.53e7 | 1.63e7
Coop | 1 | 3.97e7 | – | 1.94e7 | –
Nlg3 | 1 | 3.40e7 | 4.73e7 | 1.64e7 | 2.60e7
Nlg3 | 2 | 6.36e7 | 4.46e7 | 2.70e7 | 2.05e7
Nlg3 | 3 | 4.14e7 | 3.82e7 | 2.19e7 | 1.85e7
Nlg3 | 4 | 3.30e7 | 2.62e7 | 1.61e7 | 1.34e7
